For this test, the target named is Annexin A2 (human (endogenous in serum extracellular vesicles)) (UniProt P07355). As to the kind of experiment: co-IP; anti-ANXA2 antibody (ab235939) on protein A magnetic Dynabeads; RIPA lysates of SEVs, SEV + cel-miR-39 and mimic alone; 1 h at room temperature; washed 3 times with PBS-0.1% Tween; western blot for ANXA2 and Alix. Background: In western blotting, separated proteins are transferred to a membrane and probed.

By UniProt entry, the sequences of proteins in these tests, tags left out.
UniProt P07355: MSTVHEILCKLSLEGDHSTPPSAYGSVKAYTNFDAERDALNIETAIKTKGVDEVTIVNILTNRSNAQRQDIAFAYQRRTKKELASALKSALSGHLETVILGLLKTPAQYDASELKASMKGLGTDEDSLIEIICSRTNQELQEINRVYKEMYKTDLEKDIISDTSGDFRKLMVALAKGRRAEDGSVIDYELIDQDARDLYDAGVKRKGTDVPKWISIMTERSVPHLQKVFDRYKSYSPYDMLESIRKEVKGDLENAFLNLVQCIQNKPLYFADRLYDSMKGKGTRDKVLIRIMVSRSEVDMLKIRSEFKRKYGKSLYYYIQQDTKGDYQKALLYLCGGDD
UniProt Q8WUM4: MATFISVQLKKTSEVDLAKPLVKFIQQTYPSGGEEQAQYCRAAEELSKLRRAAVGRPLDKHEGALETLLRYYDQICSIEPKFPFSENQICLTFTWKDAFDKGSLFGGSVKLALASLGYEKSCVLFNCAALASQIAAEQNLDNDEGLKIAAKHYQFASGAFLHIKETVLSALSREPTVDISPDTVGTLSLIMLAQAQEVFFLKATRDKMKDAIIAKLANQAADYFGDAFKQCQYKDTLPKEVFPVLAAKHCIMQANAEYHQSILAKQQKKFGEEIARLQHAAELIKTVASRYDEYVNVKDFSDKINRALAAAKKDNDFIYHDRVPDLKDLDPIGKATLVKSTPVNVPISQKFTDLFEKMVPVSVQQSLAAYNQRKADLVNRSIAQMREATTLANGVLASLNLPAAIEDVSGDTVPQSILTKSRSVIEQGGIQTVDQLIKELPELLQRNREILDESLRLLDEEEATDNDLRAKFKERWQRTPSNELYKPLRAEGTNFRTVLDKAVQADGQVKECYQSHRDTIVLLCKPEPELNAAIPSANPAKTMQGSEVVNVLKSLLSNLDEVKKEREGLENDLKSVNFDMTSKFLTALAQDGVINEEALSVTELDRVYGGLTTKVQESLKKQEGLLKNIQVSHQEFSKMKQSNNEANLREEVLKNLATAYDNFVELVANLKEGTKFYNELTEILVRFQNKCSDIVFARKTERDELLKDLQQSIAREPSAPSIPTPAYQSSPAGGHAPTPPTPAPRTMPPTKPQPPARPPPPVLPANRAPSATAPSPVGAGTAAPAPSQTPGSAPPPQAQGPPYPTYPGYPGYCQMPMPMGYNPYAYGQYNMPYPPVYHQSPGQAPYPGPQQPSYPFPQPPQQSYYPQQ

Results are given in words; binding and its absence hold for the method and conditions named. In cells and extracts the contact can be indirect.

Consider Alix (from UniProt Q8WUM4 1-868), for which the binding result is given as “no binding”.

For the origin of these results see article PMC8032863.
